Some entries share one result that the patent states for a list of compounds.
Assay: Determination of the moisture stability of polymorphic forms of sofosbuvir and amorphous sofosbuvir (humidity chamber, XRPD before and after)
Format: physicochemical
Conditions: 75% RH, 40° C., 18 hours, by XRPD
Protocol: Even more precisely, the moisture stability of the polymorphic form is defined as the amount in mg of the polymorphic form which is present after an exposure of an amount of 30 mg of the polymorphic form to a relative humidity of (75±1) % at a temperature of (40±1)° C. for an exposure time of (18±1) hours in a humidity chamber, relative to the amount of 30 mg of the polymorphic form before said exposure, as determined via X-ray powder diffraction pattern analysis at a temperature in the range of from 15 to 25° C. with Cu-Kalpha1,2 radiation having a wavelength of 0.15419 nm of the polymorphic form before the exposure and via said X-ray powder diffraction pattern analysis after the exposure.
30 mg of a given polymorphic form of sofosbuvir or of amorphous sofosbuvir prepared according to Reference Examples 1 to 4 were analyzed via XRPD as described in Reference Example 6. Then, these polymorphic forms of sofosbuvir or of amorphous sofosbuvir were exposed to an atmosphere having a relative humidity (RH) of 75% and a temperature of 40° C. for 18 hours in a humidity chamber and analyzed via XRPD as described in Reference Example 6. […]

Structure (SMILES) | moisture stability (amount of the polymorphic form present after exposure relative to before)
CC(C)OC(=O)[C@H](C)N[P@](=O)(OC[C@H]1O[C@@H](n2ccc(=O)[nH]c2=O)[C@](C)(F)[C@@H]1O)Oc1ccccc1 [Form 7] | at least 95%
CC(C)OC(=O)[C@H](C)N[P@](=O)(OC[C@H]1O[C@@H](n2ccc(=O)[nH]c2=O)[C@](C)(F)[C@@H]1O)Oc1ccccc1 [Form 6] | at least 95%

Source: US20170296570A1, “High Drug Load Tablets Comprising Sofosbuvir” (Sandoz AG, priority 2014, published 2017)
